The results in this text go back to paper PMC4632396.

Chains of the proteins cited; added tags and fusions are not shown. Lines headed by an entry give the natural chain unless they say otherwise; changes in a name come on top. Residues count along the entry.
UniProt Q10589, residues 1-161: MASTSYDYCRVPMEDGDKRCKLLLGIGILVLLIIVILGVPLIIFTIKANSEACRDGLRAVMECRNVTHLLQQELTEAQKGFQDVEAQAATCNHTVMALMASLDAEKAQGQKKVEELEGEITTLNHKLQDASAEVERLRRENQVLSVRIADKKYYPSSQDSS
UniProt Q05320: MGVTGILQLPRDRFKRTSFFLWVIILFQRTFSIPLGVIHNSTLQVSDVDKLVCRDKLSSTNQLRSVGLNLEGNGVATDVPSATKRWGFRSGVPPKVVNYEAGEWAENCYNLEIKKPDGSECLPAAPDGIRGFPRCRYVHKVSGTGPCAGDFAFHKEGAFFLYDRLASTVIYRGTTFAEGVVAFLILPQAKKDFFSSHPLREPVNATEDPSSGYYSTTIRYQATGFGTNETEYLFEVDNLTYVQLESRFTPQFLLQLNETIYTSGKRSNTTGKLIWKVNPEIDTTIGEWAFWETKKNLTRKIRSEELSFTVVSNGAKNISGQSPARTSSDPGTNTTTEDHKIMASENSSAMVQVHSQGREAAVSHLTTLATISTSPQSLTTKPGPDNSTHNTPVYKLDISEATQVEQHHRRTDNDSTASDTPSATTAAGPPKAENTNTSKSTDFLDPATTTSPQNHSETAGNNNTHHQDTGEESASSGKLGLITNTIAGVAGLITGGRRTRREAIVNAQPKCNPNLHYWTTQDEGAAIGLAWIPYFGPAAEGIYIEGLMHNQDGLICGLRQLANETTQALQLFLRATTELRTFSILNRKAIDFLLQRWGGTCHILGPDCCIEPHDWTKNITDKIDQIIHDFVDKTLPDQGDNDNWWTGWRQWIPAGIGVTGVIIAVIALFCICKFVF

This assay concerns the target human tetherin (human) (UniProt Q10589). The assay can be described thus: co-IP.

Results are given in words; binding and its absence hold for the method and conditions named. Binding seen in cells or lysates may run through a third protein.

On to “mature full-length Ebola virus glycoprotein (EboGP cleaved into GP1 and GP2) (from UniProt Q05320) (complex)”, for which the binding entry is recorded as “no binding”.
